Experimental data: PubChem BioAssay AID1259425 (University of Nebraska Medical Center, 2018)
The whole screen tested about 14,000 reagents; this is a part drawn at random. The numbers tell different reagents against one gene apart. Not stated in the record: the time to read-out.

Screen: 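Find knockdowns that reproduce the gene expression pattern seen when KSR1 is lost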 (primary screen)
Cells: HCT116 human colon cancer cells
Reagent: siRNA pool against human genes, 50 nM siRNA
Detection: 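After 50 nM siRNA pool, branched-DNA assay measures six marker transcripts per well, minus blank, normalised to the geometric mean of two housekeeping transcripts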
Reading the numbers: BNIP3L mRNA: higher = more BNIP3L transcript after knockdown; NDRG1 mRNA: higher = more NDRG1 transcript after knockdown; BNIP3 mRNA: higher = more BNIP3 transcript after knockdown; ALDOC mRNA: higher = more ALDOC transcript after knockdown; ACSL5 mRNA: higher = more ACSL5 transcript after knockdown

gene,reagent,"BNIP3L mRNA, set 1","NDRG1 mRNA, set 1","BNIP3 mRNA, set 1","ALDOC mRNA, set 1","ACSL5 mRNA, set 1"
MAP3K10,1,0.173,0.347,0.389,0.0143,0.609
SMARCD3,1,0.043,0.0785,0.283,0.00793,0.277
NOSIP,1,0.154,0.541,0.302,0.0324,0.184
PARD3,1,-0.00842,-0.0161,0.418,0.00392,0.138
DECR2,1,0.178,0.355,0.216,0.0202,0.165
PKM,1,0.0957,0.136,0.314,0.0155,0.539
RBM5,1,0.216,0.176,0.397,0.0184,0.259
SLC50A1,1,0.0794,0.126,0.286,0.0415,0.182
CYP4F2,1,0.162,0.143,0.401,0.0243,0.127
PITPNC1,1,0.118,0.202,0.529,0.0272,0.158
TSEN2,1,0.114,0.178,0.277,0.0384,0.208
BCAM,1,0.0639,0.141,0.179,0.0159,0.177
NCF2,1,0.146,0.14,0.255,0.0418,0.275
CDK6,1,0.0811,0.401,0.499,0.0151,0.403
MAP3K11,1,0.197,1.05,0.359,0.0303,0.313
PAIP1,1,0.0752,0.14,0.217,0.0322,0.109
FOXG1,1,0.138,0.365,0.27,0.0146,0.351
FOXG1,2,0.0312,0.151,0.213,0.0209,0.238
TRIM54,1,0.0856,0.138,0.198,0.0178,0.151
PSG1,1,0.127,0.169,0.257,0.0213,0.313
GCKR,1,0.124,0.255,0.307,0.00896,0.217
TRIM66,1,0.251,0.759,0.435,0.02,0.275
TNS1,1,0.168,0.0922,0.322,0.022,0.12
OR2L13,1,0.167,0.346,0.438,0.0585,0.288
OPLAH,1,0.0904,0.193,0.397,0.0958,0.22
MT-CO1,1,0.136,0.0947,0.426,0.0137,0.136
CDK14,1,0.145,0.379,0.29,0.00857,0.106
ZBTB7B,1,0.0992,0.104,0.299,-0.000846,0.124
CRABP1,1,0.0501,0.181,0.349,0.0139,0.14
ABT1,1,0.0548,0.204,0.311,0.00537,0.335
ARHGEF16,1,0.346,0.442,0.48,0.0522,0.377
CHD4,1,0.116,0.389,0.252,0.0763,0.203
PSME1,1,0.0856,0.126,0.275,0.0292,0.0888
AJUBA,1,0.15,0.202,0.371,0.0963,0.0628
ZZZ3,1,0.148,0.0865,0.681,0.0306,0.296
GPRC5D,1,0.179,0.172,0.44,0.0638,0.117
RALGDS,1,0.0878,0.262,0.244,0.0231,0.198
COMT,1,0.117,0.531,0.175,0.0291,0.188
MOS,1,0.0632,0.488,0.239,0.0141,0.34
PITX3,1,0.0505,0.0494,0.227,0.0221,0.133
TACC3,1,0.0417,0.266,0.309,0.0135,0.21
NR2C1,1,0.047,0.122,0.152,0.0102,0.0887
DDX42,1,0.187,0.296,0.362,0.0711,0.162
CACNG2,1,0.201,0.776,0.309,0.0396,0.265
ZCCHC7,1,0.179,0.191,0.262,0.0507,0.31
ANGPTL8,1,0.199,0.699,0.414,0.0725,0.352
GUCY2C,1,0.0679,0.134,0.305,0.0171,0.316
TBC1D22B,1,0.0872,0.131,0.329,0.0288,0.102
PDGFRA,1,0.0601,0.0959,0.235,0.00408,0.238
CCDC82,1,0.0599,0.223,0.374,0.0327,0.215
ADAM12,1,0.0873,0.105,0.262,0.0357,0.107
CDK8,1,0.0816,0.203,0.37,0.00984,0.214
UBE2A,1,0.0988,0.151,0.332,0.0178,0.194
ANTXR1,1,0.193,0.14,0.312,0.0749,0.567
NALF2,1,0.126,0.114,0.259,0.0153,0.111
PRKDC,1,0.0913,1.21,0.493,0,0.803
SSX3,1,0.371,0.379,0.395,0.036,0.169
SS18L2,1,0.0866,0.123,0.332,0.0215,0.314
MEOX2,1,0.11,0.191,0.305,0.016,0.217
MBD3L1,1,0.135,0.131,0.34,0.0221,0.165
VCX2,1,0.0583,0.176,0.196,0.0142,0.159
ADISSP,1,0.0814,0.399,0.288,0.0172,0.118
PICALM,1,0.0681,0.0839,0.35,0.0141,0.12
